Laboratory results: the supplement of paper PMC12872613
Some of the results follow. Rule as the data show it: active = 0.7 or more and inactive = the rest. Most values come without repeats; read them as rough.

Each molecule was assayed on MiaPaCa-2 CLSA-25 (assay: cell death relative to DMSO vehicle (fraction); higher = more cytotoxic). Conditions: 5 µM; treatment time 48 h; medium cystine 25 µM.

Row | Compound | cell death
1 | Cc1cnc(C(=O)O)c[n+]1[O-] [Acipimox] | inactive: 0.114
2 | CC(C)/N=c1\cc2n(-c3ccc(Cl)cc3)c3ccccc3nc-2cc1Nc1ccc(Cl)cc1 [Clofazimine] | inactive: 0.33
3 | Cc1c(C)c2c(c(C)c1O)CC[C@@](C)(CCC[C@H](C)CCC[C@H](C)CCCC(C)C)O2 [Vitamin E] | inactive: 0.134
4 | COc1c2ccoc2cc2oc(=O)ccc12 [Bergapten] | inactive: 0.00267
5 | O=C(Nc1cccnn1)N1CCC(=Cc2cccc(Oc3ccc(C(F)(F)F)cn3)c2)CC1 | inactive: 0.0286
